Source: PubChem BioAssay AID743121 (NCATS, 2013)
This is an unselected part of about 26,000 deposited reagents. In the full data, 167 (0.63%) got an active call. 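Calls are per gene from RSA p-values that are not deposited; an individual active-marked siRNA can sensitise only weakly.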 Entries without a mark were called inactive. The numbers tell different reagents against one gene apart. Reagent sequences are not shown.

Screen: 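Knock-downs that sensitise breast cancer cells to camptothecin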 (primary screen)
System: MDA-MB-231 cells, a human breast cancer line
Knock-down reagent: single siRNA against human genes, 20 nM siRNA (0.8 pmol per well)
Time to read-out: 120 h (drug added 48 h after transfection, read 72 h later)
Conditions: camptothecin 20 nM (about EC30) for 72 h; vehicle 0.1% DMSO in parallel plates
Read-out: 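Cell viability by ATP luminescence (CellTiter-Glo) as % of non-targeting siRNA wells, and the log2 ratio of viability without drug over viability with camptothecin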
Direction: log2 vehicle/camptothecin viability: higher = stronger sensitisation to camptothecin; viability with camptothecin and viability without drug: higher = more viable cells
Call rule: 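Each gene scored by redundant siRNA activity (RSA) over its individual siRNA ratios; a gene is called active at p < 0.001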

no.	gene	reagent no.	log2 vehicle/camptothecin viability	viability with camptothecin (% of control)	viability without drug (% of control)
1	ALPK2 (alpha kinase 2)	1	-0.619	84.5	55
2	ALPK2 (alpha kinase 2)	2	0.129	89.9	98.3
3	ALPK2 (alpha kinase 2)	3	0.107	34.5	37.1
4	ALPK2 (alpha kinase 2)	4	0.172	72.3	81.4
5	MXD4 (MAX dimerization protein 4)	1	0.444	20	27.2
6	MXD4 (MAX dimerization protein 4)	2	0.482	29.3	40.9
7	MXD4 (MAX dimerization protein 4)	3	0.0686	36.9	38.7
8	MXD4 (MAX dimerization protein 4)	4	-0.118	104	95.8
9	GLRX (glutaredoxin)	1	-0.404	84.9	64.2
10	GLRX (glutaredoxin)	2	-0.187	80.7	70.9
11	GLRX (glutaredoxin)	3	-0.217	86.5	74.5
12	GLRX (glutaredoxin)	4	0.0505	26.3	27.2
13	GHRL (ghrelin and obestatin prepropeptide)	1	0.157	37.6	41.9
14	GHRL (ghrelin and obestatin prepropeptide)	2	-0.411	100	75.2
15	GHRL (ghrelin and obestatin prepropeptide)	3	-0.556	23	15.7
16	GHRL (ghrelin and obestatin prepropeptide)	4	-0.618	74.4	48.5
17	IL26 (interleukin 26)	1	0.102	86.7	93.1
18	IL26 (interleukin 26)	2	-0.178	99.1	87.6
19	IL26 (interleukin 26)	3	-1.02	77.4	38
20	PRKCG (protein kinase C gamma)	1	0.0117	88.9	89.6
21	PRKCG (protein kinase C gamma)	2	0.0584	47.1	49.1
22	PRKCG (protein kinase C gamma)	3	-0.462	107	77.3
23	PRKCG (protein kinase C gamma)	4	-0.168	55.7	49.5
24	CRHR1 (corticotropin releasing hormone receptor 1)	1	-0.289	82.3	67.4
25	CRHR1 (corticotropin releasing hormone receptor 1)	2	-0.0315	96.9	94.8
26	CRHR1 (corticotropin releasing hormone receptor 1)	3	-0.333	84.8	67.3
27	CRHR1 (corticotropin releasing hormone receptor 1)	4	-0.304	92.2	74.7
28	ARL3 (ARF like GTPase 3)	1	0.0834	71.9	76.1
29	ARL3 (ARF like GTPase 3)	2	-0.452	103	75.4
30	ARL3 (ARF like GTPase 3)	3	0.193	64.1	73.2
31	NCF2 (neutrophil cytosolic factor 2)	1	-0.504	108	76.2
32	NCF2 (neutrophil cytosolic factor 2)	2	0.104	68	73.1
33	NCF2 (neutrophil cytosolic factor 2)	3	-0.059	42.6	40.9
34	NCF2 (neutrophil cytosolic factor 2)	4	-0.11	32.5	30.1
35	RBPJL	1	-0.318	104	83.8
36	RBPJL	2	-0.936	53.8	28.1
37	RBPJL	3	0.00974	80.9	81.5
38	RBPJL	4	-0.559	21.7	14.7
39	EPB42 (erythrocyte membrane protein band 4.2)	1	-0.237	64.7	54.9
40	EPB42 (erythrocyte membrane protein band 4.2)	2	-0.218	99.6	85.6
41	EPB42 (erythrocyte membrane protein band 4.2)	3	-0.465	73.4	53.2
42	EPB42 (erythrocyte membrane protein band 4.2)	4	-0.271	113	93.9
43	PHF19 (PHD finger protein 19)	1	-0.191	101	88.6
44	PHF19 (PHD finger protein 19)	2	-0.124	93.8	86.2
45	PHF19 (PHD finger protein 19)	3	-0.15	75.1	67.7
46	PHF19 (PHD finger protein 19)	4	-0.563	85.5	57.9
47	NRG1 (neuregulin 1)	1	0.073	69.7	73.3
48	NRG1 (neuregulin 1)	2	-0.0405	54.4	52.9
49	NRG1 (neuregulin 1)	3	-0.138	87.7	79.7
50	NRG1 (neuregulin 1)	4	-0.249	45	37.8
51	NRG1 (neuregulin 1)	5	0.214	74.7	86.6
52	NRG1 (neuregulin 1)	6	-0.253	86.3	72.4
53	NRG1 (neuregulin 1)	7	-0.17	42.1	37.4
54	NRG1 (neuregulin 1)	8	-0.167	89.2	79.5
55	KSR1 (kinase suppressor of ras 1)	1	-0.134	84.6	77.1
56	KSR1 (kinase suppressor of ras 1)	2	-0.238	94.8	80.3
57	KSR1 (kinase suppressor of ras 1)	3	-0.412	81.8	61.5
58	KSR1 (kinase suppressor of ras 1)	4	1.57	23.6	70.1
59	EPS15 (epidermal growth factor receptor pathway substrate 15)	1	0.234	53.3	62.7
60	EPS15 (epidermal growth factor receptor pathway substrate 15)	2	-0.382	122	93.4
61	EPS15 (epidermal growth factor receptor pathway substrate 15)	3	-0.0657	89.3	85.3
62	EPS15 (epidermal growth factor receptor pathway substrate 15)	4	-0.225	109	93.4
63	NID1 (nidogen 1)	1	-0.151	100	90.4
64	NID1 (nidogen 1)	2	-0.246	86.8	73.2
65	NID1 (nidogen 1)	3	-0.162	68.3	61
66	NID1 (nidogen 1)	4	0.0576	63.5	66.1
67	ERN1 (endoplasmic reticulum to nucleus signaling 1)	1	-0.0272	107	105
68	ERN1 (endoplasmic reticulum to nucleus signaling 1)	2	-0.221	73.4	62.9
69	ERN1 (endoplasmic reticulum to nucleus signaling 1)	3	-0.144	101	91.8
70	ERN1 (endoplasmic reticulum to nucleus signaling 1)	4	-0.686	110	68.4
